{"source": "PubChem BioAssay AID270", "about": "(DTP/NCI, 2004)", "test_system": "BDF1 mice, s.c. Lewis lung carcinoma, T/C %", "experiment": "NCI In Vivo Anticancer Drug Screen. Data for tumor model Lewis Lung Carcinoma (subcutaneous) in B6D2F1 (BDF1) mice", "details": "vehicle: saline", "description": "The antitumor activity of compounds was measured in mice bearing transplantable tumors. Survival or tumor size were measured and the results are expressed as the measurement made in the treated group (T) divided by the measurement made in the vehicle treated control group (C). The tumor model used in this assay is Lewis Lung Carcinoma (subcutaneous) in B6D2F1 (BDF1) mice", "note": "The list is a part of this screen's results and no random one: it gathers some chemical classes. Not every dose and run of a compound is shown. T/C gives the treated animals as a percentage of the vehicle group. Some T/C values are marked as having no survivor count here; that says nothing about deaths at the dose. Schedule codes are those of the source, taken here to give the interval after Q, in days (D) or hours (H), and the number of doses after X. Some entries hold several experiments; the results are listed from low to high. Where survival is the endpoint, the PubChem record calls one and a half times the control and up active, and a quarter to a half above the control has no call in these data; cut-offs in other NCI protocols can differ."}
{"smiles": "CN(CCCl)CCCl", "values": [{"measurement": "T/C", "setting": "T/C endpoint: mean tumor weight, dose: 0.15 mg/kg/injection, schedule: Q01DX011 (ip), evaluation day not shown, higher T/C = larger tumour", "result": "103 % of control [survivor count not shown]"}, {"measurement": "T/C", "setting": "T/C endpoint: mean tumor weight, dose: 0.25 mg/kg/injection, schedule: Q01DX011 (ip), evaluation day not shown, higher T/C = larger tumour", "result": "70 % of control [survivor count not shown]"}, {"measurement": "T/C", "setting": "T/C endpoint: mean tumor weight, dose: 0.3 mg/kg/injection, schedule: Q01DX011 (ip), evaluation day not shown, higher T/C = larger tumour", "result": "65 % of control [survivor count not shown]"}, {"measurement": "T/C", "setting": "T/C endpoint: mean tumor weight, dose: 0.45 mg/kg/injection, schedule: Q01DX011 (ip), evaluation day not shown, higher T/C = larger tumour", "result": "90 % of control [survivor count not shown]"}, {"measurement": "T/C", "setting": "T/C endpoint: mean tumor weight, dose: 0.5 mg/kg/injection, schedule: Q01DX011 (ip), evaluation day not shown, higher T/C = larger tumour", "result": "47 [survivor count not shown] and 55 % of control [survivor count not shown]"}, {"measurement": "T/C", "setting": "T/C endpoint: median survival time, dose: 0.1 mg/kg/injection, schedule: Q01DX009 (ip), higher T/C = longer survival", "result": "104 [survivor count not shown] and 123 % of control [survivor count not shown]"}, {"measurement": "T/C", "setting": "T/C endpoint: median survival time, dose: 0.19 mg/kg/injection, schedule: Q01DX009 (ip), higher T/C = longer survival", "result": "110 [survivor count not shown] and 114 % of control [survivor count not shown]"}, {"measurement": "T/C", "setting": "T/C endpoint: median survival time, dose: 0.19 mg/kg/injection, schedule: Q04DX003 (ip), higher T/C = longer survival", "result": "135 % of control [survivor count not shown]"}, {"measurement": "T/C", "setting": "T/C endpoint: median survival time, dose: 0.38 mg/kg/injection, schedule: Q01DX001 (ip), higher T/C = longer survival", "result": "92 % of control [survivor count not shown]"}, {"measurement": "T/C", "setting": "T/C endpoint: median survival time, dose: 0.38 mg/kg/injection, schedule: Q01DX009 (ip), higher T/C = longer survival", "result": "131 [survivor count not shown] and 133 % of control [survivor count not shown]"}, {"measurement": "T/C", "setting": "T/C endpoint: median survival time, dose: 0.38 mg/kg/injection, schedule: Q04DX003 (ip), higher T/C = longer survival", "result": "90 % of control [survivor count not shown]"}, {"measurement": "T/C", "setting": "T/C endpoint: median survival time, dose: 0.75 mg/kg/injection, schedule: Q01DX001 (ip), higher T/C = longer survival", "result": "115 % of control [survivor count not shown]"}, {"measurement": "T/C", "setting": "T/C endpoint: median survival time, dose: 0.75 mg/kg/injection, schedule: Q01DX009 (ip), higher T/C = longer survival", "result": "109 [survivor count not shown] and 135 % of control [survivor count not shown]"}, {"measurement": "T/C", "setting": "T/C endpoint: median survival time, dose: 0.75 mg/kg/injection, schedule: Q04DX003 (ip), higher T/C = longer survival", "result": "106 % of control [survivor count not shown]"}, {"measurement": "T/C", "setting": "T/C endpoint: median survival time, dose: 1.5 mg/kg/injection, schedule: Q01DX001 (ip), higher T/C = longer survival", "result": "116 % of control [survivor count not shown]"}, {"measurement": "T/C", "setting": "T/C endpoint: median survival time, dose: 1.5 mg/kg/injection, schedule: Q04DX003 (ip), higher T/C = longer survival", "result": "107 % of control [survivor count not shown]"}, {"measurement": "T/C", "setting": "T/C endpoint: median survival time, dose: 3.0 mg/kg/injection, schedule: Q01DX001 (ip), higher T/C = longer survival", "result": "94 % of control [survivor count not shown]"}]}
